# The supplement of paper PMC11060735
# Values joined by “and” are separate entries in the source; they are usually repeats but may differ in a detail not shown here. Equal entries are not always repeated. Structures can show the parent of a compound that is named as a salt. ± gives the standard deviation of the averaged measurements. In all, about 1,800 compounds were measured (“GFP- (p16Ink4a-) cell count relative to negative-control wells”: median about 0.99, lowest 2% from about 0.5 on). This is one part of the list.
# System: mouse p16Ink4a+/- lung fibroblasts (INKBRITE, bleomycin-injured)
# Assay: GFP- (p16Ink4a-) cell count relative to negative-control wells (fold of vehicle); higher = more p16Ink4a- cells surviving
# Settings: 1 µM; 3 days
row,SMILES,GFP-
1,Clc1ccc(C(Cn2ccnc2)OCc2c(Cl)cccc2Cl)c(Cl)c1 (stereo unspecified) [Isoconazole],1.19
2,Clc1ccccc1CN1CCc2sccc2C1 [Ticlopidine],0.957
3,CO[C@H]1/C=C\C=C(/C)C(=O)NC2=CC(=O)/C(=N\CCN(C)C)C(=C2O)C[C@@H](C)C[C@H](OC)[C@H](O)[C@@H](C)/C=C(\C)[C@@H]1OC(N)=O [Alvespimycin],0.64
4,OCC(O)CN1CCN(c2ccccc2)CC1 (stereo unspecified) [Dropropizine],0.873
5,"CC[C@H](CO)Nc1nc(NCc2ccccc2)c2ncn(C(C)C)c2n1 [Roscovitine, Seliciclib]",1.15
6,CC1(C)CC(=O)c2c(C(F)(F)F)nn(-c3ccc(C(N)=O)c(N[C@H]4CC[C@H](O)CC4)c3)c2C1,0.624
7,CNC(=O)CN1CCC(Oc2cc3c(Nc4cccc(Cl)c4F)ncnc3cc2OC)CC1 [Sapitinib],0.948
8,CC[C@@H]1C(=O)OC[C@@H]1Cc1cncn1C [Pilocarpine],1.04
9,CC(C)NCC(O)c1ccc(O)c(O)c1 (stereo unspecified) [Isoprenaline],1.01
10,CC[C@H]1OC(=O)C[C@@H](O)[C@H](C)[C@@H](O[C@@H]2O[C@H](C)[C@@H](O[C@H]3C[C@@](C)(O)[C@@H](O)[C@H](C)O3)[C@H](N(C)C)[C@H]2O)[C@@H](CC=O)C[C@@H](C)C(=O)/C=C/C(C)=C/[C@@H]1CO[C@@H]1O[C@H](C)[C@@H](O)[C@@H](OC)[C@H]1OC [Tylosin Tartrate],0.988
11,CN1C2CCCC1CC(NC(=O)c1nn(C)c3ccccc13)C2 (stereo unspecified) [Granisetron Hydrochloride],1.08
12,CCS(=O)(=O)CCn1c([N+](=O)[O-])cnc1C [Tinidazole],1.1
13,Cc1cccc(C)c1OCC(=O)N[C@@H](Cc1ccccc1)[C@@H](O)C[C@H](Cc1ccccc1)NC(=O)[C@H](C(C)C)N1CCCNC1=O [Lopinavir],0.947
14,CC1=C(/C=C/C(C)=C/C=C/C(C)=C/C=C/C=C(C)/C=C/C=C(C)/C=C/C2=C(C)CCCC2(C)C)C(C)(C)CCC1 [Beta-carotene],0.931
15,N#CC(=C(/N)Sc1ccccc1N)/C(C#N)=C(\N)Sc1ccccc1N,1.07
16,O=C(c1cccc(Cl)c1F)N1CCN(Cc2cccc(Nc3nccs3)n2)CC1,1.11
17,Cc1cn(C2C=CC(CO)O2)c(=O)[nH]c1=O (stereo unspecified) [Stavudine],1.15
18,COC1=CC(=O)C[C@@H](C)[C@]12Oc1c(Cl)c(OC)cc(OC)c1C2=O [Griseofulvin],1.16
19,Cn1nc(C(C)(C)C)cc1C(=O)N[C@@H](Cc1cccc(Cl)c1)C(=O)NCC#N [Cathepsin Inhibitor 1],1.01
20,CC(C)(CO)c1cc2cc(NC(=O)C3(c4ccc5c(c4)OC(F)(F)O5)CC3)c(F)cc2n1C[C@@H](O)CO,1.02
21,CCOC(=O)N1CCC(=C2c3ccc(Cl)cc3CCc3cccnc32)CC1 [Loratadine],0.899
22,COc1nc(N)nc2c1ncn2[C@@H]1O[C@H](CO)[C@@H](O)[C@@H]1O [Nelarabine],0.922
23,O=C(Nc1ccccc1Br)N[C@@H]1CCN(c2ccc(C(F)(F)F)cn2)C1,1.22
24,CCOc1nc2cccc(C(=O)O)c2n1Cc1ccc(-c2ccccc2-c2nn[nH]n2)cc1 [Candesartan],1.02
25,CN(C)C(=O)[C@H](O)[C@H](Cc1ccccc1)NC(=O)c1cc2cc(Cl)ccc2[nH]1,0.963
26,"CCCN1CCCC[C@H]1C(=O)Nc1c(C)cccc1C [Ropivacaine, Ropivacaine Hydrochloride]",1.08

row,SMILES,GFP-
1,CCCCOc1ccc(C(=O)CCN2CCCCC2)cc1 [Dyclonine],0.894
2,NC(=O)c1noc([C@H](CCCC2CCCCC2)CC(=O)NO)n1,0.703
3,C[C@H]1COc2c(N3CCN(C)CC3)c(F)cc3c(=O)c(C(=O)O)cn1c23 [Levofloxacin],0.911
4,CC(C)c1nc(CN(C)C(=O)N[C@@H](CCN2CCOCC2)C(=O)N[C@H](CC[C@H](Cc2ccccc2)NC(=O)OCc2cncs2)Cc2ccccc2)cs1 [Cobicistat],1.04
5,CCN(CC)C(=S)SSC(=S)N(CC)CC [Disulfiram],0.453
6,Cc1cccc(CN2CCN(C(c3ccccc3)c3ccc(Cl)cc3)CC2)c1 (stereo unspecified) [Meclizine],0.96
7,C[C@H](NC(=O)[C@@H](O)c1cc(F)cc(F)c1)C(=O)N[C@@H]1C(=O)N(C)c2ccccc2-c2ccccc21,0.963
8,CN1CCN(c2cccc(Nc3nc4c(-c5ccc(S(C)(=O)=O)cc5)cccn4n3)c2)CC1,0.962 ± 0.017
9,NCCCCCNCC12CC3CC(CC(C3)C1)C2 [dihydrobroMide],1.19
10,CCCCNc1cc(C(=O)O)cc(S(N)(=O)=O)c1Oc1ccccc1 [Bumetanide],1.15
11,O=C(NCc1ccc(Oc2ccccc2)cc1)c1nc(-c2cc(Br)c(O)c(Br)c2)no1,0.936
12,O[C@@H](CNC[C@H](O)[C@H]1CCc2cc(F)ccc2O1)[C@@H]1CCc2cc(F)ccc2O1 [Nebivolol],0.928
13,COC(=O)Nc1nc2cc(C(=O)c3ccc(F)cc3)ccc2[nH]1 [Flubendazole],0.933
14,CN(C)CCC=C1c2ccccc2CCc2ccccc21 [Amitriptyline],0.751
15,CN(C)C(=O)C(CCN1CCC(O)(c2ccc(Cl)cc2)CC1)(c1ccccc1)c1ccccc1 [Loperamide],1.16
16,Cc1cc(C)c(CNC(=O)c2cc(-c3ccc(CN4CCOCC4)cc3)cc3c2cnn3C2CCCC2)c(O)n1,0.893 ± 0.04
17,CC1(C)S[C@@H]2[C@H](NC(=O)C(C(=O)O)c3ccccc3)C(=O)N2[C@H]1C(=O)O (stereo partly specified) [Carbenicillin],1.19
18,O=C(O)Cc1cccc(OCCCN(Cc2cccc(C(F)(F)F)c2Cl)CC(c2ccccc2)c2ccccc2)c1,0.916
19,N=C(N)N [Guanidine],1.03
20,COc1ccc([C@@H]2CC(=O)c3c(O)cc(O[C@@H]4O[C@H](CO[C@@H]5O[C@@H](C)[C@H](O)[C@@H](O)[C@H]5O)[C@@H](O)[C@H](O)[C@H]4O)cc3O2)cc1O [Hesperidin],1.11 and 0.972
21,CCN1/C(=C/C(C)=O)Sc2ccc(OC)cc21,0.912
22,COc1cc(OC)c2c(O)nc(-c3cc(C)c(OCCO)c(C)c3)nc2c1,0.938 ± 0.072
23,Fc1ccc(C(c2ccc(F)cc2)N2CCN(C/C=C/c3ccccc3)CC2)cc1 [Flunarizine],1.07
24,CS(=O)(=O)c1ccc(C2=C(c3ccccc3)C(=O)OC2)cc1 [Rofecoxib],1.16
25,Cc1cc(-c2ncc(CC(=O)Nc3ccc(-c4cnccn4)cn3)cc2C)ccn1,1.18
26,CC1(C)CC(=O)c2c(C(F)(F)F)nn(-c3ccc(C(N)=O)c(N[C@H]4CC[C@H](OC(=O)CN)CC4)c3)c2C1,0.658

# Single values from the results shown.
# CN(C)CCC=C1c2ccccc2CCc2ccccc21 [Amitriptyline] | GFP-: 0.751
# CS(=O)(=O)c1ccc(C2=C(c3ccccc3)C(=O)OC2)cc1 [Rofecoxib] | GFP-: 1.16

# Further results.

row,SMILES,GFP-
1,Cc1ccc(O)c([C@H](CCN(C(C)C)C(C)C)c2ccccc2)c1 [Tolterodine],1.03
2,CC1(C)SC2C(NC(=O)[C@H](C(=O)O)c3ccsc3)C(=O)N2C1C(=O)O (stereo partly specified) [Ticarcillin sodium],1.22
3,C=CCc1ccc(O)c(-c2ccc(O)c(CC=C)c2)c1 [Honokiol],0.883
4,C[C@]1(c2nc3c(C(N)=O)cccc3[nH]2)CCCN1 [Veliparib],0.936 ± 0.085
5,O=C(/C=C/C=C/c1ccc2c(c1)OCO2)N1CCCCC1 [Piperine],1.04
6,Cc1ccc(NC(=O)c2cccc(C(C)(C)C#N)c2)cc1Nc1ccc2ncn(C)c(=O)c2c1,1.03
7,CC(C)(C)c1ccc(C(=O)CCCN2CCC(OC(c3ccccc3)c3ccccc3)CC2)cc1 [Ebastine],0.749
8,COc1ccc(CCN(C)CCCC(C#N)(c2ccc(OC)c(OC)c2)C(C)C)cc1OC (stereo unspecified) [Verapamil],0.931
9,C=C1C(=O)[C@@]23C(CC[C@@H]1[C@H]2O)[C@@]12CO[C@]3(O)[C@@H](O)[C@@H]1C(C)(C)CC[C@@H]2O (stereo partly specified) [Oridonin],0.884
10,N[C@@H](Cc1cc(I)c(Oc2ccc(O)c(I)c2)c(I)c1)C(=O)O [Liothyronine],0.935
11,Cc1ccc(-n2sc(=O)n(Cc3ccc(F)cc3)c2=O)cc1,1.1
12,O=c1cc(N2CCOCC2)oc2c1ccc1ccccc12,1.03
13,CCOc1ccccc1N=Nc1c(C)nn(-c2nc(-c3ccccc3)cs2)c1O,0.929
14,CC(=O)Oc1ccc(C(c2ccc(OC(C)=O)cc2)c2ccccn2)cc1 [Bisacodyl],1.13
15,CN(C)CC/C=C1/c2ccccc2COc2ccc(CC(=O)O)cc21 [Olopatadine],1
16,CN(C)c1ccc(C(=O)NCCCCCCC(=O)NO)cc1,0.614 ± 0.1
17,CO[C@H]1C[C@@H]2CC[C@@H](C)[C@@](O)(O2)C(=O)C(=O)N2CCCC[C@H]2C(=O)O[C@H]([C@H](C)C[C@@H]2CC[C@@H](OC(=O)C(C)(CO)CO)[C@H](OC)C2)CC(=O)[C@H](C)/C=C(\C)[C@@H](O)[C@@H](OC)C(=O)[C@H](C)C[C@H](C)/C=C/C=C/C=C/1C [Temsirolimus],0.67
18,COC(=O)N[C@@H](C)CNc1nccc(-c2cn(C(C)C)nc2-c2cc(Cl)cc(NS(C)(=O)=O)c2F)n1,1.03
19,C[C@H](CCC(=O)O)[C@H]1CC[C@H]2[C@@H]3[C@@H](O)C[C@@H]4C[C@H](O)CC[C@]4(C)[C@H]3CC[C@]12C [Ursodeoxycholic Acid],0.953
20,O=C(O)c1ccc(N2C(=O)/C(=C/c3ccc(-c4ccc([N+](=O)[O-])cc4)o3)C=C2c2ccccc2)cc1,0.896
21,O=[N+]([O-])c1ccc2c(c1)S(=O)(=O)C=C2 [Stattic],0.935
22,N=C(N)/N=C(\N)NCCc1ccccc1 [Phenformin],1.14
23,COC(=O)/C=C/C(=O)OC [Dimethyl Fumarate],1
24,CC#CCn1c(N2CCC[C@@H](N)C2)nc2c1c(=O)n(Cc1nc(C)c3ccccc3n1)c(=O)n2C [Linagliptin],1.16

# Another view of two compounds above.
row | SMILES | GFP-
12 | O=c1cc(N2CCOCC2)oc2c1ccc1ccccc12 | 1.03
13 | CCOc1ccccc1N=Nc1c(C)nn(-c2nc(-c3ccccc3)cs2)c1O | 0.929
